Measurements reported in PubChem BioAssay AID1259254 (NCATS, 2017)
Shown is an unselected part of about 59,000 reagents. Of all reagents, about 1,550 (2.6%) were called active. 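G2 share is only a proxy for re-replication; each gene was hit by three separate siRNAs, and active genes were retested.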 The numbers tell different reagents against one gene apart. Further read-outs or replicates are left out here. Not stated in the record: the amount of reagent.

Aim: 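Gene knock-downs that lead to re-replication, shown by excess G2 DNA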 (primary screen)
Cell system: human HCT116 colorectal cancer cells
Knock-down reagent: single siRNA against human genes
Duration: 3 days
Measurement: 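Imaged Hoechst DNA stain sorts each cell into a cycle phase by DNA amount; per plate, G2 fraction set to 0% for non-targeting and 100% for GMNN siRNA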
Direction: G2 robust z-score: higher = more G2 cells, more excess DNA replication
Call rule: 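An siRNA counts as active if its G2 robust z-score lies at least 5 MADs above the screen median; here such calls match roughly 38% of GMNN control or more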

G2 robust z-score, by target gene and reagent
TPM1 (GeneID 7168): #1 2.22 inactive; #2 -0.0439 inactive; #3 1.7 inactive
GTPBP8 (GeneID 29083): #1 -0.704 inactive; #2 -0.166 inactive; #3 -0.945 inactive
SLC19A2 (GeneID 10560): #1 -0.96 inactive; #2 0.281 inactive; #3 4.29 inactive
RNF2 (GeneID 6045): #1 1.18 inactive; #2 0.613 inactive; #3 -0.801 inactive
SORD2P (GeneID 653381): #1 -0.532 inactive; #2 3.8 inactive; #3 2.02 inactive
KIAA0513 (GeneID 9764): #1 -0.418 inactive; #2 0.735 inactive; #3 -0.0238 inactive
GAL3ST4 (GeneID 79690): #1 0.716 inactive; #2 -0.46 inactive; #3 1.62 inactive
COL22A1 (GeneID 169044): #1 -0.00126 inactive; #2 7.25 active; #3 1.13 inactive
H2AC14 (GeneID 8331): #1 4.01 inactive; #2 0.566 inactive; #3 -0.159 inactive
RAB6B (GeneID 51560): #1 -0.375 inactive; #2 0.402 inactive; #3 -0.767 inactive
P2RY2 (GeneID 5029): #1 -1.09 inactive; #2 1.48 inactive; #3 2.43 inactive
TOR1B (GeneID 27348): #1 -0.58 inactive; #2 1.35 inactive; #3 3.37 inactive
ATP8B2 (GeneID 57198): #1 -1.02 inactive; #2 0.054 inactive; #3 0.807 inactive
SULT4A1 (GeneID 25830): #1 -0.723 inactive; #2 -1.04 inactive; #3 1.04 inactive
GDF11 (GeneID 10220): #1 1.49 inactive; #2 1.69 inactive; #3 -0.522 inactive

Hits, of those listed so far:
G2 robust z-score, by target gene and reagent
COL22A1 (GeneID 169044): #2 7.25 active

Additional entries:
G2 robust z-score, by target gene and reagent
TRGV5 (GeneID 6978): #1 0.779 inactive; #2 0.582 inactive; #3 -0.931 inactive
MARS1 (GeneID 4141): #1 0.459 inactive; #2 2.74 inactive; #3 9.87 active
SLC12A4 (GeneID 6560): #1 -0.588 inactive; #2 -0.0464 inactive; #3 1.64 inactive
TREML1 (GeneID 340205): #1 1.52 inactive; #2 0.478 inactive; #3 -0.0973 inactive
PNPLA5 (GeneID 150379): #1 -0.938 inactive; #2 -1.21 inactive; #3 0.397 inactive
SPMIP5 (GeneID 143379): #1 -0.489 inactive; #2 -0.52 inactive; #3 -1 inactive
LINC02910 (GeneID 284756): #1 1.47 inactive; #2 -0.688 inactive; #3 0.112 inactive
DNAJC21 (GeneID 134218): #1 -0.636 inactive; #2 -0.0431 inactive; #3 -0.106 inactive
